Where “and” joins values, the source holds several entries; their conditions need not be identical. Identical values can stand only once. The inconclusive results got no clear call from the source; some entries with a clear call stand among them for comparison. Potencies of inconclusive entries are doubtful fits and often do not repeat. Calls of active or inactive are those of the source. The call rests on the fitted dose curve; in most records, active means well fitted curve in the direction sought with a large enough effect; inconclusive means small, poorly fitted or top-dose-only effect, or another doubt; inactive means no such curve, though single readings can be large; an effect the other way counts as inactive or inconclusive.
Tests used:
[1] = qHTS of pediatric cancer cell lines to identify multiple opportunities for drug repurposing: Confirmatory screen for LAN-5 cells (AID 1347113); further: nearly all actives have a fitted effect of over 65% in size
Method in brief: (§1)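 Viability after 48 h compound treatment at 37C, 500-1,000 cells/well, read as ATP luminescence with CellTiter-Glo. Primary screens used 11-point (MIPE, 0.78 nM-46 µM) or 8-point (NPC, 0.59 nM-46 µM) final concentrations; follow-up screens used 11-point dilutions.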

[2] = qHTS of pediatric cancer cell lines to identify multiple opportunities for drug repurposing: Confirmatory screen for SJ-GBM2 cells (AID 1347116); further: nearly all actives have a fitted effect of over 60% in size
Method in brief: (§2)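 Viability measured as metabolically active cells via CellTiter-Glo luminescence following 48 hours of compound exposure, 11-point dilutions in confirmatory testing. 500-1,000 cells/well plated 5 hours before dosing; controls were DMSO and 2.3 µM bortezomib.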

[3] = qHTS of pediatric cancer cell lines to identify multiple opportunities for drug repurposing: Confirmatory screen for BT-37 cells (AID 1347117); further: nearly all actives have a fitted effect of over 55% in size
Method in brief: as §1

[4] = qHTS of pediatric cancer cell lines to identify multiple opportunities for drug repurposing: Confirmatory screen for TC32 cells (AID 1347118);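 further: cells exposed to compound for 48 h before the read; nearly all actives have a fitted effect of over 65% in size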
Method in brief: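 qHTS, TC32, 48 h drug treatment, CellTiter-Glo luminescence as a proxy for metabolically active cells; primary top concentration 46 µM (MIPE 11-pt, NPC 8-pt); confirmatory 11-pt.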

[5] = qHTS of pediatric cancer cell lines to identify multiple opportunities for drug repurposing: Confirmatory screen for U-2 OS cells (AID 1347122); further: nearly all actives have a fitted effect of over 65% in size
Method in brief: as §1

[6] = qHTS of pediatric cancer cell lines to identify multiple opportunities for drug repurposing: Confirmatory screen for DAOY cells (AID 1347114); further: nearly all actives have a fitted effect of over 65% in size
Method in brief: as §2

[7] = qHTS of pediatric cancer cell lines to identify multiple opportunities for drug repurposing: Confirmatory screen for NB-EBc1 cells (AID 1347115);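 further: cells exposed to compound for 48 h before the viability read; nearly all actives have a fitted effect of over 45% in size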
Method in brief: as §1

[8] = qHTS of pediatric cancer cell lines to identify multiple opportunities for drug repurposing: Confirmatory screen for MG 63 (6-TG R) cells (AID 1347119); further: nearly all actives have a fitted effect of over 55% in size
Method in brief: as §1
Potency means the concentration at half of the fitted maximal effect.

Row | SMILES | Potency [1] | Potency [2] | Potency [3] | Potency [4] | Potency [5] | Potency [6] | Potency [7] | Potency [8]
1 | CCN(CC)CCNC(=O)c1cc(Cl)c(N)cc1OC | inconclusive: 0.329 µM [rising, full curve] | inconclusive: 8.27 µM [rising, full curve] | inactive | inconclusive: 5.85 µM [cytotoxic, partial curve] | inactive | – | – | –
2 | [O-][n+]1ccccc1SSc1cccc[n+]1[O-] | – | inconclusive: 2.04 µM [cytotoxic, full curve, poor fit] | – | – | inconclusive: 2.29 µM [cytotoxic, partial curve, poor fit] | inconclusive: 1.29 µM [cytotoxic, full curve, poor fit] | active: 2.57 µM | inactive
3 | Nc1ccc([N+](=O)[O-])cc1O | – | inactive | inconclusive: 38 µM [cytotoxic, partial curve, poor fit] | active: 7.59 µM | inactive | inactive | inactive | inactive
4 | COCCn1c2c([n+](Cc3cnccn3)c1C)C(=O)c1ccccc1C2=O | – | active: 0.0657 µM | – | active: 0.0185 µM | – | – | active: 1.04 µM | –
5 | C=C(c1ccc(C(=O)O)cc1)c1cc2c(cc1C)C(C)(C)CCC2(C)C | – | inconclusive: 3.29 µM [rising, partial curve] | inactive | inconclusive: 7.37 µM [cytotoxic, partial curve, poor fit] | inconclusive: 32.9 µM [cytotoxic, partial curve, poor fit] | inactive | – | inactive
6 | COc1cc2nc(-c3ccc(N4CCN(C)CC4)cc3)nc(NCCN3CCOCC3)c2cc1OC | inconclusive: 0.165 µM [cytotoxic, full curve, poor fit] | inconclusive: 0.369 µM [cytotoxic, full curve, poor fit] | inconclusive: 5.22 µM [cytotoxic, partial curve, poor fit] | inconclusive: 0.0185 µM [cytotoxic, full curve, poor fit] | active: 0.261 µM | – | inconclusive: 10.4 µM [cytotoxic, partial curve, poor fit] | inconclusive: 2.61 µM [cytotoxic, partial curve, poor fit]
7 | O=C1c2ccccc2-[n+]2ccc3c([nH]c4ccccc43)c21 | – | – | – | – | active: 1.17 µM | – | – | –
8 | COc1cc2c(Oc3ccc(NC(=O)C4(C(=O)Nc5ccc(F)cc5)CC4)cc3F)ccnc2cc1OCCCN1CCOCC1 | – | – | – | – | – | – | active: 13.1 µM | –
9 | CC(=O)OCC(=O)[C@@]1(O)CC[C@H]2[C@@H]3CCC4=CC(=O)C=C[C@]4(C)[C@H]3[C@@H](O)C[C@@]21C | inconclusive: 4.14 µM [rising, full curve] | – | inconclusive: 13.1 µM [cytotoxic, partial curve] | inactive | – | – | – | –
10 | Oc1ccc(C2CCN(c3ccnc4ccccc34)CC2)cc1O | inconclusive: 36.9 µM [cytotoxic, single point] | active: 1.17 µM | inconclusive: 18.5 µM [cytotoxic, partial curve] | – | active: 2.93 µM | – | active: 14.7 µM | –
11 | COC(=O)c1nc(Cl)c(Cl)nc1N | – | – | – | active: 2.33 µM | – | active: 1.65 µM | – | active: 2.93 µM
12 | CN(c1ncccc1CNc1nc(Nc2ccc3c(c2)CC(=O)N3)ncc1C(F)(F)F)S(C)(=O)=O | – | inconclusive: 18.5 µM [cytotoxic, partial curve, poor fit] | – | inconclusive: 3.69 µM [cytotoxic, full curve, poor fit] | – | – | inconclusive: 8.27 µM [cytotoxic, single point] | inconclusive: 1.31 µM [cytotoxic, full curve, poor fit]
13 | O=C(C=CC=Cc1ccc2c(c1)OCO2)N1CCCCC1 | inconclusive: 26.1 µM [cytotoxic, single point] | inactive | – | active: 10.4 µM | – | – | – | –
14 | CC(=O)Oc1cc2c(s1)CCN(C(C(=O)C1CC1)c1ccccc1F)C2 (stereo not given) | – | – | inactive | inactive | inconclusive: 0.928 µM [cytotoxic, full curve] | inconclusive: 32.9 µM [cytotoxic, single point] | inactive | –
15 | COc1ccc(-c2coc3cc(O)cc(O)c3c2=O)cc1 | inconclusive: 10.4 µM [rising, full curve, poor fit] | inconclusive: 5.85 µM [rising, partial curve] | – | – | inactive | inactive | – | inactive
16 | Cc1oncc1C(=O)Nc1ccc(C(F)(F)F)cc1 | inactive | inconclusive: 1.04 µM [rising, full curve] | – | inconclusive: 14.7 µM [cytotoxic, partial curve] | – | inactive | – | inconclusive: 9.27 µM [cytotoxic, partial curve, poor fit]
17 | CNS(=O)(=O)CCc1ccc2[nH]cc(C3CCN(C)CC3)c2c1 | – | inactive | inactive | – | – | – | inactive | inactive
18 | COc1cccc(-c2cc(=O)c3ccccc3o2)c1N | inconclusive: 0.657 µM [rising, full curve, poor fit] | inconclusive: 1.17 µM [cytotoxic, full curve, poor fit] | – | – | – | – | – | –
19 | CCC(C)SSc1ncc[nH]1 (stereo not given) | – | inconclusive: 29.3 µM [cytotoxic, single point] | inconclusive: 29.3 µM [cytotoxic, single point] | – | inconclusive: 36.9 µM [cytotoxic, single point] | inconclusive: 14.7 µM [cytotoxic, partial curve] | inconclusive: 16.5 µM [cytotoxic, partial curve] | active: 20.8 µM
20 | CCc1ccc(OCc2ccccc2C(=O)Nc2ccc3nc(C)cc(N)c3c2)cc1 | active: 7.37 µM | – | active: 7.37 µM | – | – | inconclusive: 10.4 µM [cytotoxic, full curve, poor fit] | – | –
21 | Cc1[nH]c(C=C2C(=O)Nc3ccccc32)c(C)c1CCC(=O)O | – | inconclusive: 0.414 µM [rising, full curve] | inactive | inactive | – | inactive | inactive | inactive
22 | CCN1/C(=C/C=C/c2sc3ccccc3[n+]2CC)Sc2ccccc21 | active: 0.737 µM | – | – | – | – | – | active: 2.61 µM | –
23 | CCCSc1ccc2nc(NC(=O)OC)[nH]c2c1 | – | inconclusive: 2.51 µM [cytotoxic, full curve] | – | – | – | – | inconclusive: 1.12 µM [cytotoxic, full curve] | –
24 | CC1=C(CO)C(=O)O[C@@H]([C@@H](C)[C@H]2CC[C@H]3[C@@H]4C[C@H]5O[C@]56[C@@H](O)C=CC(=O)[C@]6(C)[C@@H]4CC[C@]23C)C1 | inconclusive: 2.93 µM [cytotoxic, full curve, poor fit] | inactive | inactive | inactive | – | – | – | inactive
25 | CC[C@]1(O)C[C@H]2CN(CCc3c([nH]c4ccccc34)[C@@](C(=O)OC)(c3cc4c(cc3OC)N(C=O)[C@H]3[C@@](O)(C(=O)OC)[C@H](OC(C)=O)[C@]5(CC)C=CCN6CC[C@]43[C@@H]65)C2)C1 | active: 58.5 nM and active: 827 nM | inconclusive: 0.329 µM [cytotoxic, full curve] | – | – | active: 414 nM and active: 585 nM | – | – | –
26 | CNCC[C@H](Oc1cccc2ccccc12)c1cccs1 | inconclusive: 18.5 µM [cytotoxic, single point] | inactive | – | – | inactive | inconclusive: 29.3 µM [cytotoxic, single point] | – | –
